# Cleaved PARP in drug-treated melanoma cells

From a melanoma drug combination screen (doi:10.1371/journal.pone.0140310); values rounded.

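Human melanoma cells were exposed to two drugs together for 72 h in 1,536-well plates and read by automated microscopy after fixing and staining. The read-out is the fraction of cleaved-PARP-positive nuclei, in % of that fraction in the DMSO control; 200 means twice the control level of this apoptosis marker. Every drug was used at one fixed concentration, the higher of two screened. The file gives one value for each pair and line, without errors, so small differences may be noise. The marker varies much from line to line, for technical or biological reasons.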
This is part of the screen, not chosen by result.

Drugs:
AZD7762, 0.1 µM: NC(=O)Nc1cc(-c2cccc(F)c2)sc1C(=O)N[C@H]1CCCNC1
cediranib, 2 µM: COc1cc2c(Oc3ccc4[nH]c(C)cc4c3F)ncnc2cc1OCCCN1CCCC1
sunitinib, 2 µM: CCN(CC)CCNC(=O)c1c(C)[nH]c(/C=C2\C(=O)Nc3ccc(F)cc32)c1C
cisplatin, 8 µM: N.N.[Cl][Pt][Cl]
nilotinib, 1 µM: Cc1cn(-c2cc(NC(=O)c3ccc(C)c(Nc4nccc(-c5cccnc5)n4)c3)cc(C(F)(F)F)c2)cn1
SNS-314, 0.004 µM: O=C(Nc1cccc(Cl)c1)Nc1ncc(CCNc2ncnc3ccsc23)s1
decitabine, 0.5 µM: Nc1ncn([C@H]2C[C@H](O)[C@@H](CO)O2)c(=O)n1
ABT-263, 2 µM: CC1(C)CCC(c2ccc(Cl)cc2)=C(CN2CCN(c3ccc(C(=O)NS(=O)(=O)c4ccc(N[C@H](CCN5CCOCC5)CSc5ccccc5)c(S(=O)(=O)C(F)(F)F)c4)cc3)CC2)C1
PLX4720, 0.4 µM: CCCS(=O)(=O)Nc1ccc(F)c(C(=O)c2c[nH]c3ncc(Cl)cc23)c1F

| # | Pair | IPC-298 |
|---|---|---|
| 1 | AZD7762 and cisplatin | 110 |
| 2 | PLX4720 and AZD7762 | 171 |
| 3 | decitabine and nilotinib | 344 |
| 4 | ABT-263 and cediranib | 28.7 |
| 5 | PLX4720 and ABT-263 | 224 |
| 6 | SNS-314 and AZD7762 | 36.4 |
| 7 | sunitinib and AZD7762 | 257 |
| 8 | decitabine and ABT-263 | 564 |
| 9 | AZD7762 and cediranib | 193 |
| 10 | PLX4720 and nilotinib | 83.5 |
| 11 | PLX4720 and sunitinib | 212 |
| 12 | PLX4720 and cisplatin | 98.1 |
| 13 | cisplatin and decitabine | 213 |
| 14 | decitabine and sunitinib | 209 |
| 15 | SNS-314 and PLX4720 | 191 |
| 16 | cisplatin and cediranib | 131 |
| 17 | decitabine and cediranib | 113 |
| 18 | sunitinib and cisplatin | 199 |
| 19 | nilotinib and cisplatin | 52.8 |
| 20 | decitabine and SNS-314 | 211 |
| 21 | SNS-314 and cediranib | 185 |
| 22 | ABT-263 and sunitinib | 118 |

Once more, the final 2:

| Pair | IPC-298 |
|---|---|
| SNS-314 and cediranib | 185 |
| ABT-263 and sunitinib | 118 |